Values joined by “and” are separate entries in the source; they are usually repeats but may differ in a detail not shown here. Identical values can stand only once. The source calls these results inconclusive, neither active nor inactive. Unless noted, the call rests on the fitted dose curve; in most records, active means well fitted curve in the direction sought with a large enough effect in the repeat runs; inconclusive means weak or mixed curves; inactive means no such curve, though single readings can be large; an effect the other way counts as inactive or inconclusive.
Tests used:
[1] = qHTS assay to identify small molecule antagonists of the androgen receptor (AR) signaling pathway - cell viability counter screen (AID 743033; further: nearly all actives have a fitted effect of over 45% in size); settings: AR-bla HEK293 viability, CellTiter-Glo luminescence, 16 h
[2] = qHTS assay to identify small molecule antagonists of the thyroid receptor (TR) signaling pathway (AID 743065); settings: GH3.TRE-Luc, T3-stimulated luciferase inhibition, 23.5 h; further: nearly all actives have a fitted effect of over 55% in size
Summary of the method: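 GH3.TRE-Luc rat pituitary cells carrying two TR response elements driving luciferase were plated for 4 h, given compound plus 1 nM T3 (final), and incubated 23.5 h at 37 C. ONE-Glo luminescence measured reporter inhibition; CellTiter-Fluor fluorescence tracked cytotoxicity.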

By UniProt entry, the sequences of proteins in these tests, tags left out.
UniProt P19793, whole entry: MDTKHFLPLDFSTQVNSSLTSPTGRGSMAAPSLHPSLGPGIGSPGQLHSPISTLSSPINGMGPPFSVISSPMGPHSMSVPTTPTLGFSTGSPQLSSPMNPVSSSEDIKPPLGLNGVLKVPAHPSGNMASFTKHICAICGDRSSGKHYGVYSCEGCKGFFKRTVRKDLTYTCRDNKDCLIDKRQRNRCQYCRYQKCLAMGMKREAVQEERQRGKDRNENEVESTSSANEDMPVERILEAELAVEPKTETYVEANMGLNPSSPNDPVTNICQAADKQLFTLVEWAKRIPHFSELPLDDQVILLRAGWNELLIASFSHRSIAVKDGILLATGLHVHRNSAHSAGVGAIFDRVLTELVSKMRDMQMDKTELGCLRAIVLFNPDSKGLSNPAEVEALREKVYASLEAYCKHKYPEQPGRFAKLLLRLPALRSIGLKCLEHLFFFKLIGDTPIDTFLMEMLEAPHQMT
UniProt P06401, whole entry: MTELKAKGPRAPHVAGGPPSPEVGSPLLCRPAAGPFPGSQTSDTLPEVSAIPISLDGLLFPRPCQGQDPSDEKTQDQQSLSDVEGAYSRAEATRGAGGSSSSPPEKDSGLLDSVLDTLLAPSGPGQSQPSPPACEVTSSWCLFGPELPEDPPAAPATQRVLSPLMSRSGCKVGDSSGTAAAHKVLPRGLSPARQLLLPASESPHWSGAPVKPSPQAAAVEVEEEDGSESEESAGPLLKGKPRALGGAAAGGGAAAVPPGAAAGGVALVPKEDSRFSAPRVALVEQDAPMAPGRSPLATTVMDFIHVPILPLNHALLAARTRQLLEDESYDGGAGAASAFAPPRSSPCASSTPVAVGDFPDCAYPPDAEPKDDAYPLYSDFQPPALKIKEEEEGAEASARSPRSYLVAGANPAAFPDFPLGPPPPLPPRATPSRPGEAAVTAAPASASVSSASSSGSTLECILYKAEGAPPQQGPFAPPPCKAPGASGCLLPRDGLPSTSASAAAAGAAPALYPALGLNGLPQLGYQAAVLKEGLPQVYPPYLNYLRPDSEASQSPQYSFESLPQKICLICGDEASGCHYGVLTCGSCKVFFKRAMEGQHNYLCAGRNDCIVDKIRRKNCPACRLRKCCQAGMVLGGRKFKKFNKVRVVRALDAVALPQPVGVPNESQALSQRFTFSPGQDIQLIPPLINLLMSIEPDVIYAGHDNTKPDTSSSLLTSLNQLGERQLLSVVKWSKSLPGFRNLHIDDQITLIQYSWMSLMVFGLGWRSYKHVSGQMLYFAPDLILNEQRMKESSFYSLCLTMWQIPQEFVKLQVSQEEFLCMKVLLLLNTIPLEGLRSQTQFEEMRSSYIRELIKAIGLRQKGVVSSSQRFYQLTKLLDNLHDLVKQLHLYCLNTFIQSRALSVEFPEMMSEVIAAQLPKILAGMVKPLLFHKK
UniProt Q12809, whole entry: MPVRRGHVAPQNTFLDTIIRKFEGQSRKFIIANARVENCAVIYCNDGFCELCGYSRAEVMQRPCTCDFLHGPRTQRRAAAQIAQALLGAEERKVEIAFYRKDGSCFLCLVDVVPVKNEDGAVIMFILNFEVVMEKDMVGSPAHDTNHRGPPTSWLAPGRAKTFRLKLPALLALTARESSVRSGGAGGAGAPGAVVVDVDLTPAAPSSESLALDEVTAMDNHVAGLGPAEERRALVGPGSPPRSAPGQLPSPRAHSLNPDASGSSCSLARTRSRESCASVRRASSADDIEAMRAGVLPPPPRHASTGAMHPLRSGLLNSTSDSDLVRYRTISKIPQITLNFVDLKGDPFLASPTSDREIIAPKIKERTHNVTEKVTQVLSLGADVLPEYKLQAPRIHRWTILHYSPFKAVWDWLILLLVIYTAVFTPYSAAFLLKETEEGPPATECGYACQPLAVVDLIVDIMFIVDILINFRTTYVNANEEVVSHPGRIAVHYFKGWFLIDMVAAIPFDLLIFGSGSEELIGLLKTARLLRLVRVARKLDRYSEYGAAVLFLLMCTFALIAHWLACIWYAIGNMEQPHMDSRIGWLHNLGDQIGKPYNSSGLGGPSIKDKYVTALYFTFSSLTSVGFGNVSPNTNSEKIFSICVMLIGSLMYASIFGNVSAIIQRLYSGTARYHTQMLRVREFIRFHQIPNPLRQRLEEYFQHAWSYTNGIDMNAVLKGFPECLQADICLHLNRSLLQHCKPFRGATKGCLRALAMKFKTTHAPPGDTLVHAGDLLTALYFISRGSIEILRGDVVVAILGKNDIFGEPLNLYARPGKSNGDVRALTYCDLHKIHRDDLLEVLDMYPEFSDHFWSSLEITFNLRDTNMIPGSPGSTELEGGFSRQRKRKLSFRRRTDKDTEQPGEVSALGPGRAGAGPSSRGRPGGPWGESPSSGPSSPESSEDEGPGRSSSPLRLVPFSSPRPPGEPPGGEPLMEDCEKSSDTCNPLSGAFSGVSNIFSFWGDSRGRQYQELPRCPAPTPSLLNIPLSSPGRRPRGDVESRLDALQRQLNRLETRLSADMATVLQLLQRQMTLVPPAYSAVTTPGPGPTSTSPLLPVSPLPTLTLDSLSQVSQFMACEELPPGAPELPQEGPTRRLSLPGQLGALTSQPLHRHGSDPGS
UniProt Q92731, whole entry: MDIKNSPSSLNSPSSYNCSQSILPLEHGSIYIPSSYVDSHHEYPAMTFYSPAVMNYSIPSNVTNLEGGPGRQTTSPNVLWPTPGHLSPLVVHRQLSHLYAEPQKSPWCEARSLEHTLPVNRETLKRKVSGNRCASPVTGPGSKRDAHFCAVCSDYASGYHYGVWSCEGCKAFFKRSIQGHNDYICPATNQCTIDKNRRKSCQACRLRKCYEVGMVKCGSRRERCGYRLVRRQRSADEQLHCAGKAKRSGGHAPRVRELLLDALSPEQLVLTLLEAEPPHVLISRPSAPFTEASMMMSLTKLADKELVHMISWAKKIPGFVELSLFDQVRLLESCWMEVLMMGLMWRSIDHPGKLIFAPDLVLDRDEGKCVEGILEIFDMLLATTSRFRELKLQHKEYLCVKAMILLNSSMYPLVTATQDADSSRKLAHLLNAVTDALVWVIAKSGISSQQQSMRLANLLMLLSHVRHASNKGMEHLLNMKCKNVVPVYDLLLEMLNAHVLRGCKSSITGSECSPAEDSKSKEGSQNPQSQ

[3] = qHTS assay to identify small molecule that activate the aryl hydrocarbon receptor (AhR) signaling pathway - cell viability counter screen (AID 743086); settings: HepG2-AhR-luc viability, CellTiter-Fluor, 24 h; further: nearly all actives have a fitted effect of over 45% in size
Summary of the method: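 HepG2-AhR-luc (HG2L7.5c1) cells, 4000/well, were preincubated 5 h at 37C, exposed to compound in qHTS format for 24 hr at 37C, then given CellTiter-Fluor for 30 min; viability was read as fluorescence in the reporter wells.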

[4] = qHTS assay to identify small molecule antagonists of the peroxisome proliferator-activated receptor gamma (PPARg) signaling pathway - cell viability counter screen (AID 743194); settings: PPARg-bla HEK293H viability, CellTiter-Glo luminescence, 17 h; co-treated with 50 nM rosiglitazone; further: nearly all actives have a fitted effect of over 55% in size
Summary of the method: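 PPARg-UAS-bla HEK293H cells were plated, rested 5 h at 37 C, then treated with compounds plus rosiglitazone (50 nM final) for 17 h at 37 C; viability was then read by CellTiter-Glo luminescence after 30 min at room temperature.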

[5] = qHTS assay for small molecule agonists of the antioxidant response element (ARE) signaling pathway (AID 743202; active means well fitted activation curve with a large enough effect in the signal ratio in the repeat runs, not every such curve was filed as active; inconclusive means weak or mixed curves, or effect the other way; inactive means no such curve, though single readings can be large or run the other way; the % refers to the signal ratio); settings: HepG2 ARE-bla reporter, beta-lactamase FRET, 16 h
Summary of the method: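 Steps: seed ARE-bla HepG2 cells (2,000/well); incubate 5 h at 37 C; add compounds by pin tool; incubate 16 h at 37 C; add FRET substrate; read fluorescence after 2 h at RT.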

[6] = qHTS assay for small molecule agonists of the antioxidant response element (ARE) signaling pathway - cell viability counter screen (AID 743203; calls by dose curve; further: nearly all actives have a fitted effect of over 55% in size); settings: ARE-bla HepG2 viability, CellTiter-Glo luminescence, 16 h
Summary of the method: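 Measured in the same wells as the beta-lactamase ARE reporter, this read-out is CellTiter-Glo luminescence from HepG2 ARE-bla cells given compounds for 16 hrs.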

[7] = qHTS assay to identify small molecule agonists of the peroxisome proliferator-activated receptor delta (PPARd) signaling pathway - cell viability counter screen (AID 743211); settings: PPARd-bla HEK293H viability, CellTiter-Glo luminescence, 17 h; further: nearly all actives have a fitted effect of over 55% in size
Summary of the method: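 PPARd-bla HEK293H cells (3000/well) were pre-incubated 5 h at 37 C, then exposed to compound for 17 h at 37 C. After 2 h with LiveBLAzer substrate, CellTiter-Glo was added to the same wells; luminescence read after 30 min at room temperature.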

[8] = qHTS assay to identify small molecule agonists of the vitamin D receptor (VDR) signaling pathway - cell viability counter screen (AID 743224); settings: VDR-bla HEK293T viability, CellTiter-Glo luminescence, 16 h; further: nearly all actives have a fitted effect of over 50% in size
Summary of the method: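 In parallel with the bla FRET readout, cytotoxicity toward VDR-bla cells after 16 h compound exposure was assessed by CellTiter-Glo, with luminescence recorded after a 30 min room-temperature incubation.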

[9] = qHTS assay to identify small molecule agonists of the AP-1 signaling pathway (AID 1159526; calls by dose curve); settings: ME-180 (cervical carcinoma) AP-1-bla reporter, beta-lactamase FRET ratio, 5 h
[10] = molecular target: Retinoic acid receptor RXR-alpha (Homo sapiens) (UniProt P19793); experiment: qHTS assay to identify small molecule agonists of the RXR signaling pathway (AID 1159527; calls by dose curve; further: nearly all actives have a fitted effect of over 35% in size); settings: HEK293T RXRa-UAS-bla, beta-lactamase ratio, 16 h
Summary of the method: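 GeneBLAzer RXR-alpha-UAS-bla HEK 293T cells in 2% charcoal-stripped FBS medium were exposed to compounds for 16 hr at 37 C in agonist mode. Beta-lactamase reporter read as 460/530 nm FRET ratio after 2 hr substrate loading.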

[11] = qHTS assay to identify small molecule antagonists of the estrogen related receptor (ERR) signaling pathway from Tox21 library - cell viability counter screen (AID 1224834); settings: ERR reporter cells viability, CellTiter-Fluor, 17.5 h; further: nearly all actives have a fitted effect of over 30% in size
Summary of the method: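 In this quantitative HTS format, ERR cells receive compounds in DMSO and are incubated for 17.5 h at 37 C. Live-cell protease activity is then detected with CellTiter-Fluor.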

[12] = qHTS RealTime-Glo MT Cell Viability Assay in HEK293 cells - 16 hour (AID 1224872); settings: RealTime-Glo luminescence; further: nearly all actives have a fitted effect of over 50% in size
Summary of the method: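 HEK293 cells were seeded at 600 cells/well together with NanoLuc luciferase and cell-permeant prosubstrate, preincubated 5 h at 37 C/5% CO2, then given compound in DMSO by pintool. Luminescence from viable-cell prosubstrate reduction was read repeatedly over 40 h.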

[13] = qHTS RealTime-Glo MT Cell Viability Assay in HEK293 cells - 8 hour (AID 1224887); settings: RealTime-Glo luminescence; further: nearly all actives have a fitted effect of over 50% in size
Summary of the method: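 Measured as luminescence from the same continuously cultured HEK293 wells at successive time points (0, 8, 16, 24, 32, 40 h) after compound addition. Reagent present from seeding; dosing at 5 h; incubation 37 C.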

[14] = qHTS assay to identify small molecule antagonists of the estrogen receptor alpha (ER-alpha) signaling pathway using the BG1 cell line in the presence of 0.1 nM 17-beta-estradiol - cell viability counter screen (AID 1259241); settings: VM7Luc4E2 (BG1) viability, CellTiter-Fluor protease, 22 h; 0.1 nM estradiol agonist added; further: nearly all actives have a fitted effect of over 40% in size
Summary of the method: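 VM7Luc4E2 cells (endogenous full-length ER-alpha, 4xERE-luciferase), cultured 5 days in charcoal-stripped serum, exposed to compounds with 0.1 nM 17beta-estradiol (final) for 22 hr at 37C. Viability read in same wells as live-cell protease fluorescence after 30 min.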

[15] = qHTS assay to identify small molecule antagonists of the sonic hedgehog signaling (Shh) pathway (AID 1259369; calls by dose curve; further: nearly all actives have a fitted effect of over 45% in size); settings: NIH/3T3 Gli1-Luc reporter, Shh antagonist, luminescence 24 h
Summary of the method: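 Gli1 transcriptional reporter (firefly Luc) in NIH/3T3 background, conditioned-medium activated. 24hr exposure, luminescence endpoint.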

[16] = qHTS assay to identify small molecule antagonists of the estrogen receptor beta (ER-beta) signaling pathway - cell viability counter screen (AID 1259382); settings: ER-beta-UAS-bla HEK293T viability, CellTiter-Glo luminescence, 16 h; further: nearly all actives have a fitted effect of over 55% in size
Summary of the method: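 HEK293T ER-beta-UAS-bla, 2% charcoal-stripped FBS; compounds + 1nM E2 16 hr 37C; CellTiter-Glo luminescence, 30 min RT.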

[17] = molecular target: Progesterone receptor (Homo sapiens) (UniProt P06401); experiment: qHTS assay to identify small molecule antagonists of the progesterone receptor (PR) signaling pathway (AID 1346795; active means well fitted inhibition curve with a large enough effect in the signal ratio in the repeat runs, not every such curve was filed as active; inconclusive means weak or mixed curves; the % refers to the signal ratio); settings: PR-UAS-bla HEK293T, beta-lactamase FRET ratio, 16 h; activity change, negative = inhibition: at 92.4 µM (top of the series)
Summary of the method: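 PR-UAS-bla HEK293T cells with beta-lactamase reporter under UAS control, in 2% charcoal-stripped FBS, treated with compounds plus 1 nM promegestone (R5020, final) for 16 hr at 37C. Read-out: FRET beta-lactamase substrate fluorescence after 2 hr at room temperature.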

[18] = Human pregnane X receptor (PXR) small molecule agonists, qHTS cell viability counter screen (AID 1346977); settings: PXR-Luc HepG2 viability, CellTiter-Fluor, 24 h; further: nearly all actives have a fitted effect of over 50% in size
Summary of the method: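 PXR-Luc HepG2 cells (2,000/well, 5% charcoal-stripped FBS) preincubated 5 hr, then exposed to compounds 24 hr at 37 C. Viability read in the same wells by CellTiter-Fluor fluorescence, reagent added at 23 hr, 1 hr incubation.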

[19] = Caspase-3/7 induction in CHO-K1 cells by small molecules, qHTS cell viability counter screen (AID 1346979); settings: CellTiter-Fluor fluorescence, 17 h; further: nearly all actives have a fitted effect of over 35% in size
Summary of the method: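 Wild-type CHO-K1 cells (1,500/well) treated with compound after 5 h plating; after 16 h at 37C, viability read as CellTiter-Fluor fluorescence following 1 h reagent incubation, in the same wells as the caspase read.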

[20] = molecular target: Voltage-gated inwardly rectifying potassium channel KCNH2 (Homo sapiens) (UniProt Q12809); experiment: Human Ether-a-go-go-Related Gene (hERG) channel small molecule antagonists: fluorescence cell-based qHTS assay (AID 1671200); settings: hERG-U2OS cells, FluxOR thallium flux fluorescence; further: nearly all actives have a fitted effect of over 50% in size
Summary of the method: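 hERG-U2OS cells plated overnight at 37 C, loaded with FluxOR II dye 1 h at RT in dark; after 10 min, thallium stimulus added. Fluorescence (480/540 nm) read kinetically for 2 min at 1 s intervals.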

[21] = qHTS assay for small molecule agonists of the p53 signaling pathway - cell viability (AID 651633; calls by dose curve; further: nearly all actives have a fitted effect of over 30% in size); settings: p53RE-bla HCT-116 viability, ATP luminescence, 16 h
Summary of the method: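 p53RE-bla cells, seeded at 4,000 per well and rested 5 h at 37 C/5% CO2, received compounds in DMSO for 16 h at 37 C. CellTiter-Glo was then added, and luminescence was read after 30 min at room temperature to gauge cytotoxicity.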

[22] = qHTS assay to identify small molecule antagonists of the estrogen receptor alpha (ER-alpha) signaling pathway using the BG1 cell line (AID 743080; calls by dose curve;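 further: BG1 cells stimulated with 17beta-estradiol alongside compound; nearly all actives have a fitted effect of over 25% in size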); settings: BG1Luc4E2 ERE-luciferase antagonist mode, luminescence; activity change, negative = inhibition: at 70.3 µM (top of the series)
Summary of the method: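 BG1-Luc-4E2 cells (endogenous full-length ER-alpha, stable 4×ERE-luciferase) were starved 5 days in phenol-red-free medium with 10% charcoal-stripped FBS, plated 24 h, then given compound plus 17beta-estradiol for 21.5 h at 37 C; ONE-Glo luminescence read after 30 min.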

[23] = qHTS assay to identify small molecule antagonists of the retinoic acid receptor (RAR) signaling pathway (AID 1159552; further: nearly all actives have a fitted effect of over 50% in size); settings: C3RL4 RARE luciferase reporter, retinol-stimulated, 6 h
Summary of the method: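 Retinol signaling pathway inhibitors screened in C3RL4 RARE-luciferase reporter cells seeded overnight at 37 C, then compounds added with 1 uM (final) retinol as pathway substrate. After 6 hr at 37 C, luciferase luminescence read after 30 min at room temperature.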

[24] = molecular target: Estrogen receptor beta (Homo sapiens) (UniProt Q92731); experiment: qHTS assay to identify small molecule antagonists of the estrogen receptor beta (ER-beta) signaling pathway (AID 1259378; active means well fitted inhibition curve with a large enough effect in the signal ratio in the repeat runs, not every such curve was filed as active; inconclusive means weak or mixed curves, or effect the other way; inactive means no such curve, though single readings can be large or run the other way; the % refers to the signal ratio); settings: ER-beta-UAS-bla HEK293T, beta-lactamase FRET ratio, 16 h
Summary of the method: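 ER-beta-UAS-bla HEK293T (GripTite) cells in 2% charcoal-stripped FBS medium were preincubated 6 hr at 37C, dosed with compound, then stimulated with 1 nM E2 (final) for 16 hr; beta-lactamase reporter read by B/G FRET fluorescence after 2 hr substrate loading.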

[25] = qHTS assay to identify small molecule agonists of the progesterone receptor (PR) signaling pathway - cell viability counter screen (AID 1346799; calls by dose curve; further: nearly all actives have a fitted effect of over 45% in size); settings: PR-UAS-bla HEK293T viability, CellTiter-Glo luminescence, 16 h
Summary of the method: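 Counter screen in the PR-UAS-bla HEK293T wells (2% charcoal-stripped FBS, 16 h compound exposure at 37 C) after the bla read. CellTiter-Glo added, 30 min at room temperature, luminescence read as cell viability.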

Measured: Potency
Potency means the concentration at half of the fitted maximal effect.

CC(C)OP(=S)(OC(C)C)SCCNS(=O)(=O)c1ccccc1
inconclusive: [1] 54.9 µM | [2] 68.6 µM | [3] 68.6 µM | [4] 43.6 µM | [5] 68.6 µM | [6] 68.6 µM | [7] 27.5 µM | [8] 54.9 µM | [9] 21.9 µM | [10] 54.9 µM | [11] 61.1 µM | [12] 21.9 µM | [13] 27.5 µM | [14] 61.1 µM | [15] 34.4 µM | [16] 30.6 µM | [17] 54.5 µM | [18] 61.1 µM | [19] 68.6 µM | [20] 38.9 µM

Cc1cc([N+](=O)[O-])cc([N+](=O)[O-])c1O
inconclusive: [21] 21.7 µM | [22] 24.3 µM and 17.2 µM | [23] 27.3 µM and 48.6 µM | [24] 20.4 µM | [25] 19.3 µM and 24.3 µM

Reference: PubChem BioAssay (Tox21)
